The record followed here is patent US20230192895A1, “PHARMACOKINETIC & PHARMACODYNAMIC MODEL FOR DETERMINING EFFECTIVE DOSE OF ANTI-TICAGRELOR ANTIBODY” (PhaseBio Pharmaceuticals, Inc., priority 2021, published 2023).

The test deals with P2Y12 reactivity units (PRU). The settings on record: read-out: EC50 (Emax model relating uncomplexed analyte to PD measure); final PK/PD model. An excerpt:
where Base refers to the baseline (prior to administration of Ticagrelor) value. Emaxi, EC50i, and the Hill coefficient (γ) are parameters to be estimated. The same structural model was used for PRU, VASP, and LTA.
The Emax parameter relating TICA to PRU (as well as VASP and LTA) was fixed to 90%. […] It is anticipated that this parameter value would be large^13 so it was fixed at a large value. […] This value was chosen based on literature^9, 14. Finally, fm was set equal to 0.30.
For parameters that were to be estimated, most of the prior distributions were uninformative or weakly informative.

Broadly, the EC50 is the concentration that produces a half-maximal response.

In the case of `CCCSc1nc(N[C@@H]2C[C@H]2c2ccc(F)c(F)c2)c2nnn([C@@H]3C[C@H](O)[C@@H](O)[C@H]3O)c2n1` [TAM], the EC50 was determined as 98.5 nM.
